Data from PubChem BioAssay AID1487 (National Center for Advancing Translational Sciences (NCATS), 2009).
Where “and” joins values, the source holds several entries; their conditions need not be identical. Equal entries are not always repeated. Some of the results follow. These are further read-outs of the screen, such as a control signal, another cell line or another target. No call is given for them. The list favours compounds with an active or inconclusive main result. Potencies come from curve fits of mixed quality, noted in brackets.

Assay: qHTS Assay for Modulators of Lamin A Splicing
Details: HeLa LMNA splicing GFP/RFP minigene ratio, 48 h
Outline: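 S3 HeLa stable clones carrying a lamin A-EGFP splicing minigene plus DsRed2 were seeded at 600 cells/well in Opti-MEM with 2% FBS, pin-dosed and incubated 48 h at 37°C. Acumen cytometry (488 nm) gave the GFP/RFP total-intensity ratio.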

[1] = measured here: RFP viability control channel
[2] = measured here: GFP splicing reporter channel

## CC1=NN(c2ccc(Cl)cc2)C(=O)C1C(c1ccccc1O)c1c(C)[nH]n(-c2ccc(Cl)cc2)c1=O (stereo not given)
[1]
  AC50: 12.6 µM [rising, single point]

## Cc1ccc2[nH]c(O)c(N=NC(=O)C3CC3c3ccccc3)c2c1Br (stereo not given)
[1]
  AC50: 11.2 µM [rising, partial curve, poor fit]

## Cc1ccc(NNC(=O)c2ccno2)cc1Cl
[1]
  AC50: 0.0708 µM [falling, partial curve, poor fit]

## COc1ccc(/C=N\NC(=O)CNC(=O)C(c2ccccc2)c2ccccc2)cc1[N+](=O)[O-]
[1]
  AC50: 0.251 µM [rising, full curve, poor fit]

## COc1ccccc1NS(=O)(=O)c1cc(NC(=O)Nc2cccc(C)c2)ccc1N1CCCCC1
[1]
  AC50: 0.178 µM [rising, full curve]

## Nc1nc(NCc2ccco2)nc(N2CCCCCC2)c1[N+](=O)[O-]
[2]
  AC50: 0.891 µM [rising, full curve]
[1]
  AC50: 7.08 µM [rising, partial curve]

## CCC1(c2ccc(F)cc2)NC(=O)N(CC(=O)Nc2ccc(C)c(S(=O)(=O)N3CCOCC3)c2)C1=O (stereo not given)
[2]
  AC50: 5.01 µM [rising, partial curve]
[1]
  AC50: 7.94 µM [rising, partial curve]

## COc1ccc(-c2csc(N3CCN(C(=O)c4ccco4)CC3)n2)cc1
[1]
  AC50: 35.5 µM [rising, single point]

## O=S(=O)(NCCc1ccc(F)cc1)c1cccc2cccnc12
[2]
  AC50: 0.0355 µM [rising, full curve, poor fit]

## CC[n+]1c(/C=C2\C=C(C)CC(C)(C)C2)sc2ccccc21
[2]
  AC50: 5.62 µM [rising, partial curve]
[1]
  AC50: 3.16 µM [rising, full curve, poor fit]

## CCc1nc2c(sc3nc4c(cc32)COC(C)(C)C4)c(=O)n1Cc1ccco1
[1]
  AC50: 20 µM [rising, single point]

## COc1cc(-c2c(C#N)c(N)nc3c2CCCC3)ccc1O
[2]
  AC50: 15.8 µM [rising, single point]
[1]
  AC50: 17.8 µM [rising, single point]

## CN1CCN(c2ncc3nc(CCc4ccccc4)c(=O)n(CCc4ccccc4)c3n2)CC1
[1]
  AC50: 15.8 µM [falling, single point]

## O=C(CN1C(=O)C2C3CCC(C3)C2C1=O)N1CCN(Cc2ccccc2)CC1 (stereo not given)
[1]
  AC50: 0.00447 µM [falling, full curve, poor fit]

## Cc1ccc(C(=O)c2c[nH]c(C(=O)NCc3cccnc3)c2)cc1
[1]
  AC50: 10 µM [rising, partial curve, poor fit]

## C[C@@H]1Cc2ccccc2N1NC(=O)c1ccc(Cl)c(S(N)=O)c1 (stereo not given in full)
[2]
  AC50: 0.00447 µM [falling, full curve, poor fit]
[1]
  AC50: 1.78 µM [falling, partial curve]

## Cn1nnnc1SCCNCc1ccccc1OCc1ccc(Cl)cc1
[1]
  AC50: 17.8 µM [rising, partial curve]

## COc1cc(/C=N/NC(=O)c2ccoc2C)ccc1O
[1]
  AC50: 20 µM [rising, partial curve, poor fit]

## COc1ccc(OC)c(Nc2cc(C)nc3ccccc23)c1
[2]
  AC50: 12.6 µM [rising, single point]
[1]
  AC50: 12.6 µM [rising, single point]

## CCCc1cc(C(=O)N2CCN(S(=O)(=O)c3ccc(OC)c(OC)c3)CC2)cs1
[1]
  AC50: 31.6 µM [rising, single point]

## c1ccc(-c2nnc(SCc3nc4ccccc4[nH]3)n2Cc2ccco2)nc1
[1]
  AC50: 12.6 µM [rising, single point]

## CCc1ccc(Sc2cc(C(=O)NCCCOC(C)C)c3ccccc3n2)cc1
[1]
  AC50: 0.447 µM [falling, full curve, poor fit]

## CCOc1ccc2[nH]c3c(N4CCN(c5ccccn5)CC4)ncnc3c2c1
[1]
  AC50: 31.6 µM [rising, single point]

## O=C(CSc1n[nH]c(-c2cccs2)n1)N1CCN(S(=O)(=O)c2ccc3ccccc3c2)CC1
[1]
  AC50: 12.6 µM [rising, partial curve]

## Cc1ccc(S(=O)(=O)Nc2c(C)ccc3nsnc23)cc1
[1]
  AC50: 11.2 µM [rising, single point]

## O=C(NC(c1ccc(Cl)cc1)c1cc(Cl)c2cccnc2c1O)c1cccnc1 (stereo not given)
[2]
  AC50: 5.01 µM [rising, full curve]
[1]
  AC50: 3.55 µM [rising, full curve]

## CC(C(=O)NC1CCCC1)N(C(=O)c1ccc(-c2ccccc2)[nH]1)c1ccccc1F (stereo not given)
[2]
  AC50: 12.6 µM [falling, single point]
[1]
  AC50: 35.5 µM [falling, single point]

## OCCN1CCN(CC/C=C2\c3ccccc3Sc3ccc(C(F)(F)F)cc32)CC1
[2]
  AC50: 0.00126 µM [falling, full curve, poor fit]

## CN/N=C/c1ccc(C#N)cc1
[1]
  AC50: 3.98 µM [rising, full curve, poor fit]

## CCOC(=O)N1CCN(C(=O)C(NC(=O)c2ccc(CC)cc2)C(C)C)CC1 (stereo not given)
[2]
  AC50: 3.55 µM [rising, partial curve, poor fit]
[1]
  AC50: 14.1 µM [rising, single point]

## CC1Nc2ccccc2C(=O)N1NC(=O)c1ccc(Br)cc1 (stereo not given)
[2]
  AC50: 0.0562 µM [rising, full curve, poor fit]

## CCOC(=O)C(C)n1nc(C)c2sc3ccccc3c2c1=O (stereo not given)
[1]
  AC50: 5.62 µM [rising, single point]

## O=C(Nc1ccc(Cc2ccncc2)cc1)c1cccc([N+](=O)[O-])c1
[2]
  AC50: 2.82 µM [rising, partial curve]
[1]
  AC50: 11.2 µM [rising, partial curve]

## Cc1cc(C(=O)N/N=C/c2cc([N+](=O)[O-])ccc2O)c2ccccc2n1
[2]
  AC50: 12.6 µM [rising, single point]
[1]
  AC50: 15.8 µM [rising, partial curve]

## O=C(CSc1ncc(CO)n1Cc1ccc(Cl)cc1)NCc1ccc(F)cc1
[2]
  AC50: 39.8 µM [falling, single point]

## Cc1ccccc1C(=O)Nc1ccc(C(=O)OCc2cc(=O)n3nc(C(C)C)sc3n2)cc1
[2]
  AC50: 2.51 µM [falling, partial curve, poor fit]
[1]
  AC50: 12.6 µM [rising, single point]

## COc1ccc(CSCC(=O)N/N=C/c2ccccc2O)cc1
[2]
  AC50: 8.91 µM [falling, partial curve, poor fit]
[1]
  AC50: 35.5 µM [falling, single point]

## CC(C)O
[2]
  AC50: 0.0282 µM [rising, full curve, poor fit]
[1]
  AC50: 1.12 µM [falling, single point]

## COc1cc(/C=N/NC(=S)Nc2cccc(S(=O)(=O)N(C)C)c2)ccc1O
[2]
  AC50: 8.91 µM [rising, partial curve, poor fit]
[1]
  AC50: 5.01 µM [rising, partial curve, poor fit]

## COc1ccc(NC(=S)N2CCN(c3ccccn3)CC2)cc1OC
[2]
  AC50: 0.0282 µM [falling, full curve, poor fit]

## COc1ccccc1NC(=O)c1cnc(Nc2ccccc2OC)c2ccccc12
[1]
  AC50: 0.794 µM [rising, full curve, poor fit]

## COc1ccc(OCC(=O)Nc2ccc(S(=O)(=O)Nc3cc(C)nc(C)n3)cc2)cc1
[2]
  AC50: 6.31 µM [rising, single point]
[1]
  AC50: 0.251 µM [rising, partial curve, poor fit]

## CCc1c(C)nc2ncnn2c1N1CCC(C(=O)NCc2ccc3c(c2)OCO3)CC1
[1]
  AC50: 10 µM [rising, single point]

## Oc1ccccc1N=Nc1ccccc1O
[1]
  AC50: 5.62 µM [rising, single point]

## COC(=O)Nc1nc2ccc(Sc3ccccc3)cc2[nH]1
[2]
  AC50: 708 nM [falling, full curve] and 8.91 µM [rising, partial curve, poor fit]
[1]
  AC50: 316 nM [rising, full curve] and 5.01 µM [rising, full curve]

## COc1ccc(C2/C(=C(/O)c3ccc(OC(C)C)cc3)C(=O)C(=O)N2CCCN2CCOCC2)cc1 (stereo not given)
[1]
  AC50: 0.0316 µM [falling, full curve, poor fit]

## COCCn1c(=O)[nH]c2cc(C(=O)NCCN3CCN(c4ccccc4F)CC3)ccc2c1=O
[2]
  AC50: 3.55 µM [rising, partial curve]
[1]
  AC50: 11.2 µM [rising, partial curve]

## O=C(CSC1=Nc2ccccc2N=C(c2ccc(F)cc2)C1)NCc1ccccc1Cl
[2]
  AC50: 0.0178 µM [falling, full curve, poor fit]

## CN=C(Nc1cc(Cl)ccc1Cl)SC1CC(=O)N(c2ccc(C(=O)OC)cc2)C1=O (stereo not given)
[2]
  AC50: 12.6 µM [falling, partial curve]

## CCOc1ccc(CNC(=O)c2sc3ncnc(N(C)C4CCCCC4)c3c2C)cc1
[1]
  AC50: 35.5 µM [falling, single point]

## O=C(Nc1sc2c(c1C(=O)O)CCCCC2)c1ccccc1F
[1]
  AC50: 0.708 µM [rising, single point]

## O=C(c1ccco1)c1cc2c(ccc3ccccc32)oc1=O
[2]
  AC50: 35.5 µM [rising, single point]
[1]
  AC50: 0.251 µM [rising, single point]

## CCn1cc(C(=O)NCc2ccccc2Cl)cn1
[2]
  AC50: 0.00447 µM [falling, full curve, poor fit]
[1]
  AC50: 0.00501 µM [falling, full curve, poor fit]

## COc1ccccc1NC(=O)CCc1nc(-c2ccccc2F)no1
[2]
  AC50: 0.0126 µM [falling, full curve, poor fit]
[1]
  AC50: 0.0562 µM [falling, full curve, poor fit]
